Our source for the binding values is US20230183336A1 (MODMAB THERAPEUTICS, published 2023).

Sequences and labels used below:
B1: LRP5-H5 (antibody, V domains shown)
VH: EVQLVESGGGLVQPGGSLRLSCAASGFNLSYSSIHWVRQAPGKGLEWVASISSSYGSTSYADSVKGRFTISADTSKNTAYLQMNSLRAEDTAVYYCARGYWAIDYWGQGTLVTVSS
VL: DIQMTQSPSSLSASVGDRVTITCRASQSVSSAVAWYQQKPGKAPKLLIYSASSLYSGVPSRFSGSRSGTDFTLTISSLQPEDFATYYCQQPVGHYGYPITFGQGTKVEIKR
notes: Fab-phage in the screen
B2: LRP5-A9 (antibody, V domains shown)
VH: EVQLVESGGGLVQPGGSLRLSCAASGFNISSYSIHWVRQAPGKGLEWVASSSYYGYTYYADSVKGRFTISADTSKNTAYLQMNSLRAEDTAVYYCARTVRGSKKPYFSGWAMDYWGQGTLVTVSS
VL: B1 VL with P91V, V92H, G93Y, H94S, Y95P, G96Y, Y97S, P98L
notes: Fab-phage in the screen
B3: LRP5-A7 (antibody, V domains shown)
VH: EVQLVESGGGLVQPGGSLRLSCAASGFNLSYSSMHWVRQAPGKGLEWVASIYPYYGYTYYADSVKGRFTISADTSKNTAYLQMNSLRAEDTAVYYCARHGAMDYWGQGTLVTVSS
VL: DIQMTQSPSSLSASVGDRVTITCRASQSVSSAVAWYQQKPGKAPKLLIYSASSLYSGVPSRFSGSRSGTDFTLTISSLQPEDFATYYCQQAWGWGLFTFGQGTKVEIKR
notes: Fab-phage in the screen; also called LRP5-47
B4: LRP5-C5 (antibody, V domains shown)
VH: EVQLVESGGGLVQPGGSLRLSCAASGFNFSSSSIHWVRQAPGKGLEWVASISSSYGYTYYADSVKGRFTISADTSKNTAYLQMNSLRAEDTAVYYCARSSYYSSVSSSVYALDYWGQGTLVTVSS
VL: B3 VL with A91Y, W92Q, G93Y, W94S, F97I
B5: LRP5-R3_E8 (antibody, V domains shown)
VH: B3 VH with S30Y, Y52S, P53S, Y59S, H99Y, G100W, M102L
VL: B3 VL with A91V, W92S, G93Y, W94Y, G95P, F97I
B6: LRP5-C12 (antibody, V domains shown)
VH: EVQLVESGGGLVQPGGSLRLSCAASGFNFSSSSIHWVRQAPGKGLEWVASIYSSYGSTSYADSVKGRFTISADTSKNTAYLQMNSLRAEDTAVYYCARTVRGSKKPYFSGWAMDYWGQGTLVTVSS
VL: B3 VL with A91F, W92S, G93H, W94V, G95S, F97I
notes: Fab-phage in the screen
B7: LRP5-E5 (antibody, V domains shown)
VH: EVQLVESGGGLVQPGGSLRLSCAASGFNIYSYSIHWVRQAPGKGLEWVASIYPYSSYTSYADSVKGRFTISADTSKNTAYLQMNSLRAEDTAVYYCARYAVYFPGYYWGMDYWGQGTLVTVSS
VL: B3 VL with A91Y, W92H, G93Y, W94Y, G95Y
notes: Fab-phage in the screen
B8: LRP5-H9 (antibody, V domains shown)
VH: EVQLVESGGGLVQPGGSLRLSCAASGFNIYSYYIHWVRQAPGKGLEWVASIYSYYGYTYYADSVKGRFTISADTSKNTAYLQMNSLRAEDTAVYYCARSYPAMDYWGQGTLVTVSS
VL: DIQMTQSPSSLSASVGDRVTITCRASQSVSSAVAWYQQKPGKAPKLLIYSASSLYSGVPSRFSGSRSGTDFTLTISSLQPEDFATYYCQQSSYSPITFGQGTKVEIKR
notes: Fab-phage in the screen
B9: LRP5-D9 (antibody, V domains shown)
VH: EVQLVESGGGLVQPGGSLRLSCAASGFNISYSYIHWVRQAPGKGLEWVASIYSSYGYTYYADSVKGRFTISADTSKNTAYLQMNSLRAEDTAVYYCARHYSYFFYAMDYWGQGTLVTVSS
VL: B8 VL with S91A
notes: Fab-phage in the screen
B10: LRP5-G9 (antibody, V domains shown)
VH: EVQLVESGGGLVQPGGSLRLSCAASGFNISYSYIHWVRQAPGKGLEWVASIYSSYGYTYYADSVKGRFTISADTSKNTAYLQMNSLRAEDTAVYYCARWGAYHSSGYGMDYWGQGTLVTVSS
VL: B8 VL with Y93S
notes: Fab-phage in the screen
B11: LRP5-G10 (antibody, V domains shown)
VH: EVQLVESGGGLVQPGGSLRLSCAASGFNFSSSSIHWVRQAPGKGLEWVASISSSYGYTYYADSVKGRFTISADTSKNTAYLQMNSLRAEDTAVYYCARGGSGVSHYGSVYYSWWALDYWGQGTLVTVSS
VL: B8 VL with P95L
B12: LRP5-G2 (antibody, V domains shown)
VH: EVQLVESGGGLVQPGGSLRLSCAASGFNLSYYYMHWVRQAPGKGLEWVASIYSSYGYTYYADSVKGRFTISADTSKNTAYLQMNSLRAEDTAVYYCARWSHVSGHYSGMDYWGQGTLVTVSS
VL: B8 VL with S91A, S94A
B13: LRP5-R3O_G6 (antibody, V domains shown)
VH: EVQLVESGGGLVQPGGSLRLSCAASGFNISSYSMHWVRQAPGKGLEWVAYISPYYGYTSYADSVKGRFTISADTSKNTAYLQMNSLRAEDTAVYYCARGWGSPASAGYYGLDYWGQGTLVTVSS
VL: B8 VL with P95L
B14: LRP5-G11 (antibody, V domains shown)
VH: EVQLVESGGGLVQPGGSLRLSCAASGFNISYSYIHWVRQAPGKGLEWVASIYPSYGYTYYADSVKGRFTISADTSKNTAYLQMNSLRAEDTAVYYCARAAPYYGYYYSYAMDYWGQGTLVTVSS
VL: DIQMTQSPSSLSASVGDRVTITCRASQSVSSAVAWYQQKPGKAPKLLIYSASSLYSGVPSRFSGSRSGTDFTLTISSLQPEDFATYYCQQGVSLITFGQGTKVEIKR
notes: Fab-phage in the screen
B15: LRP5-H3 (antibody, V domains shown)
VH: EVQLVESGGGLVQPGGSLRLSCAASGFNLYYYYIHWVRQAPGKGLEWVASISPYYGYTSYADSVKGRFTISADTSKNTAYLQMNSLRAEDTAVYYCARSGYGWYAMDYWGQGTLVTVSS
VL: B14 VL with G91Y, V92W, S93F
notes: Fab-phage in the screen

Substitutions are numbered along the chain they refer to. These are yes or no findings as the source states them, for the method shown. Binding calls can cover weak binding; strength is not graded here.

In this assay the target is recombinant LRP5 ECD. As to the kind of experiment: Fab-phage ELISA on immobilized recombinant LRP5 ECD.
Turning to B1, the binding result was “binds”. With B2, the binding result is reported as “binds”.

For the molecule B3, the binding entry is listed as “binds”. For the molecule B4, the binding result is “binds”. The value for B5 was “binds”.

In the case of B6, the binding entry was “binds”. For the molecule B7, the binding result is on record as “binds”. The value for B8 was “binds”. The same measure for B9: “binds”. The value for B10 was “binds”; that for B11 was “binds”. As to B12, the binding result was “binds”.

On to B13, for which the binding result is “binds”. The value for B14 was “binds”; that for B15 was “binds”.
